Experimental data reported in article PMC7979705.
These are yes or no findings as the source states them, for the method shown. In cells and extracts the contact can be indirect. Tags and fused reporters may be left off the sequences shown.

Biological target: Flag-SIRT3
Assay: co-IP; HEK293T co-transfected with tagged ELF5 and tagged sirtuins; precipitation with anti-Flag affinity gel; immunoblot

B1: HA-tagged ELF5 (protein, UniProt Q9UKW6-2 1-255)
chain: MLDSVTHSTFLPNASFCDPLMSWTDLFSNEEYYPAFEHQTACDSYWTSVHPEYWTKRHVWEWLQFCCDQYKLDTNCISFCNFNISGLQLCSMTQEEFVEAAGLCGEYLYFILQNIRTQGYSFFNDAEESKATIKDYADSNCLKTSGIKSQDCHSHSRTSLQSSHLWEFVRDLLLSPEENCGILEWEDREQGIFRVVKSEALAKMWGQRKKNDRMTYEKLSRALRYYYKTGILERVDRRLVYKFGKNAHGWQEDKL
binding: no binding
